This passage reports binding results from publication PMC4457860, “In Vitro Interaction of the Housekeeping SecA1 with the Accessory SecA2 Protein of Mycobacterium tuberculosis” (PLoS ONE, 2015).

Results are given in words; binding and its absence hold for the method and conditions named. Where a sequence is shown, tags or fusion partners need not be part of it.

In the assay the target is T1, Mycobacterium tuberculosis SecA2(S802C) labeled with Cy5 (Mycobacterium tuberculosis strain H37Rv) (UniProt P9WGP3).
T1 sequence (chain, Cy5 (Cy5-maleimide label)): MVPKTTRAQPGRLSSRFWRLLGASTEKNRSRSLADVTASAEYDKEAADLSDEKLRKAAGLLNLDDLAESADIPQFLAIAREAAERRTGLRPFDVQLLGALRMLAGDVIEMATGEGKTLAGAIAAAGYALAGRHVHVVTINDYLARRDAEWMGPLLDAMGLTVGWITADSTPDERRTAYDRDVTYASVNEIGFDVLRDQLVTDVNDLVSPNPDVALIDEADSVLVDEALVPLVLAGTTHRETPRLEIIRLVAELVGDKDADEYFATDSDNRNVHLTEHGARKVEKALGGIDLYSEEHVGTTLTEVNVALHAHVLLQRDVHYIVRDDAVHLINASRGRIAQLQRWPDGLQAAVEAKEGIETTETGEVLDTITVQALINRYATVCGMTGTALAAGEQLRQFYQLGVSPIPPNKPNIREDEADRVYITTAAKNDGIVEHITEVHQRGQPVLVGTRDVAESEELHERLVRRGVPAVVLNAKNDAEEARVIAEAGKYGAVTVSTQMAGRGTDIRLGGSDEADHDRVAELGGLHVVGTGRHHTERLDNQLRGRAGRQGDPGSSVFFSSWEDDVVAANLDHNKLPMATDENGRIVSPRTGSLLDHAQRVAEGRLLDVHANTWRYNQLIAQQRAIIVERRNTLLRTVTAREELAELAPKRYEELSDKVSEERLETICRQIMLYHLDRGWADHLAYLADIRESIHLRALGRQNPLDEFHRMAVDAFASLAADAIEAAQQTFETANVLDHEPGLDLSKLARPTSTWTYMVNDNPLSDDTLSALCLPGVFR
Nature of the assay: MST; Monolith NT.115; unlabeled protein (1 nM to 5 μM) titrated into 25 nM Cy5-labeled protein, mixed in 300 mM KCl, then diluted into low salt buffer (25 mM HEPES-KOH pH 7.5, 30 mM KCl, 2 mM MgCl2, 50 mM arginine); Hill fit, apparent Kd; dimer to monomers; both purified.

With “Escherichia coli SecA (unlabeled) (from UniProt P10408 1-901)”, the binding entry is “no binding (tested: 1 nM to 5 μM (methods))”.
